# Structures can show the parent of a compound that is named as a salt.
# Experiment: Emitted dose from Turbospin passive inhaler (Example 11)
# Conditions: for Left in Capsules (%): ± is RSD
structure (smiles),measurement,setting,value
"CC(C)C[C@H]1C(=O)N2CCC[C@H]2[C@]2(O)O[C@](NC(=O)[C@@H]3C=C4c5cccc6[nH]c(Br)c(c56)C[C@H]4N(C)C3)(C(C)C)C(=O)N12 [SEDS bromocriptine, bromocriptine mesylate]",ED drops (flow rate dependence),,8-20%
same,Left in Capsules (%),"fill weight 4.0 mg, flow rate 28.3 LPM",−1.5 ± −134%
same,Left in Capsules (%),"fill weight 4.0 mg, flow rate 60 LPM",0.5 ± 347%
same,Left in Capsules (%),"fill weight 8.0 mg, flow rate 28.3 LPM",10.5 ± 118%
same,Left in Capsules (%),"fill weight 8.0 mg, flow rate 60 LPM",−0.1 ± −2320%
same,ED at high flow rates,regardless of fill weight,> 80%
